Test results as given in US12128173B2, “Dry powder drug delivery system and methods” (MannKind Corporation, priority 2012, dated 2024).

Assay: O-series vs U-series inhaler: discharge and particle size of crystalline and amorphous powders (Example 14)
Assay type: physicochemical
Conditions: fill 25 mg, 4 kPa
Procedure: These experiments were conducted to test various inhaler designs in trying to improve percent dose discharge or increase device emptying to acceptable ranges for certain types of powders used. […] In these experiments, therefore, two types of dry powder inhalers were designed and built. An O-series (FIGS. 49 and 50) dry powder inhaler wherein the inhaler comprises rigid conduits which generate a tumbling, recirculating action of an airflow through the powder container during an inhalation in an O-shape prior to the airflow exiting the container. […]
The rigid flow conduits as illustrated in FIGS. 49 and 51 can be adapted to any type of dry powder inhaler for delivering different types of powder compositions. […] Inhaler performance was tested and evaluated from measurements using various parameters, such as pressure differential, powder content prior to and after testing of various powders via a simulated single inhalation. The particle size distribution of the discharged powder plume for each inhaler used was also measured as described in Example 7 above.

O=C(O)/C=C/C(=O)NCCCCC1NC(=O)C(CCCCNC(=O)/C=C/C(=O)O)NC1=O (centres unmarked) [FDKP, 3,6-bis(N-fumaryl-4-aminobutyl)-2,5-diketopiperazine]
% CE (Sample 1, O-series): 93.02%
% CE (Sample 2, U-series): 93.90%
